# Results deposited as PubChem BioAssay AID1259425 (University of Nebraska Medical Center, 2018)
# Assay: 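Compare each knockdown with KSR1 silencing using changes in marker transcripts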 (primary screen)
# Cell system: HCT116 human colon cancer cells
# Reagents: siRNA pool against human genes, 50 nM siRNA
# Read-out: 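After 50 nM siRNA pool, branched-DNA assay measures six marker transcripts per well, minus blank, normalised to the geometric mean of two housekeeping transcripts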
# Scale: BNIP3L mRNA: higher = more BNIP3L transcript after knockdown; NDRG1 mRNA: higher = more NDRG1 transcript after knockdown; BNIP3 mRNA: higher = more BNIP3 transcript after knockdown; ALDOC mRNA: higher = more ALDOC transcript after knockdown; ACSL5 mRNA: higher = more ACSL5 transcript after knockdown
# The deposit covers about 14,000 reagents; shown is a random part of them. Not stated in the record: the time to read-out.
Target gene,"BNIP3L mRNA, set 1","NDRG1 mRNA, set 1","BNIP3 mRNA, set 1","ALDOC mRNA, set 1","ACSL5 mRNA, set 1"
LAMP1 (lysosome associated membrane protein 1),0.0236,0.506,0.263,0.0376,0.0874
ZBTB44 (zinc finger and BTB domain containing 44),0.0451,0.201,0.256,0.0167,0.265
UBE2B (ubiquitin conjugating enzyme E2 B),0.0781,0.0985,0.272,0.0178,0.13
BAZ2B (bromodomain adjacent to zinc finger domain 2B),0.214,0.12,0.235,0.0201,0.138
GABRG1 (gamma-aminobutyric acid type A receptor subunit gamma1),0.0572,0.0744,0.185,0.0235,0.0757
MTHFR (methylenetetrahydrofolate reductase),0.121,0.239,0.325,0.0206,0.097
"PLAT (plasminogen activator, tissue type)",0.0948,0.0835,0.237,0.0316,0.114
"RAB28 (RAB28, member RAS oncogene family)",0.0792,0.12,0.254,0.0246,0.0897
SMARCAD1 (SNF2 related chromatin remodeling ATPase with DExD box 1),0.0786,0.174,0.291,0.0257,0.191
CD244 (CD244 molecule),0.152,0.144,0.286,0.0204,0.048
SAFB2 (scaffold attachment factor B2),0.0913,0.147,0.298,0.0295,0.105
GRTP1 (growth hormone regulated TBC protein 1),0.132,0.366,0.294,0.0288,0.185
NR1H4 (nuclear receptor subfamily 1 group H member 4),0.0454,0.142,0.326,0.018,0.118
"PWP1 (PWP1 homolog, endonuclein)",0.073,0.662,0.343,0.0203,0.175
MXRA5 (matrix remodeling associated 5),0.283,0.0806,0.432,0.0238,0.123
SMARCA4,0.101,0.125,0.292,0.0266,0.124
DHX58 (DExH-box helicase 58),0.0887,0.579,0.219,0.0711,0.105
DLX5 (distal-less homeobox 5),0.0731,0.0749,0.254,0.0182,0.184
HYPK (huntingtin interacting protein K),0.123,0.278,0.74,0.0336,0.46
NOM1 (nucleolar protein with MIF4G domain 1),0.0891,0.137,0.407,0.0286,0.251
TULP4 (TUB like protein 4),0.152,0.282,0.373,0.0257,0.285
KYAT1 (kynurenine aminotransferase 1),0.0419,0.316,0.309,0.0159,0.223
NUMBL (NUMB like endocytic adaptor protein),0.213,0.5,0.408,0.0513,0.134
MAPK9 (mitogen-activated protein kinase 9),0.0837,0.0899,0.189,0.0114,0.0504
"ALG3 (ALG3 alpha-1,3- mannosyltransferase)",0.177,0.238,0.229,0.021,0.209
FAM106A (family with sequence similarity 106 member A),0.181,0.241,0.332,0.0114,0.188
BEGAIN (brain enriched guanylate kinase associated),0.161,0.213,0.419,0.0293,0.196
GARNL3 (GTPase activating Rap/RanGAP domain like 3),0.287,0.199,0.311,0.145,0.642
JAM3 (junctional adhesion molecule 3),0.291,0.232,0.342,0.14,0.304
ATP6AP2 (ATPase H+ transporting accessory protein 2),0.0828,0.129,0.295,0.0506,0.134
PARM1 (prostate androgen-regulated mucin-like protein 1),0.159,0.0791,0.274,0.014,0.136
PRPS2 (phosphoribosyl pyrophosphate synthetase 2),0.0962,0.188,0.291,0.0109,0.215
TM9SF4 (transmembrane 9 superfamily member 4),0.13,0.406,0.245,0.00749,0.196
ZNF821 (zinc finger protein 821),0.0588,0.165,0.276,0.0213,0.111
GOLPH3L (golgi phosphoprotein 3 like),0.109,0.139,0.37,0.0131,0.244
GNB4 (G protein subunit beta 4),0.103,0.3,0.332,0.0397,0.27
FAM167B (family with sequence similarity 167 member B),0.118,0.0568,0.296,0.0348,0.143
KCNH8 (potassium voltage-gated channel subfamily H member 8),0.0891,0.109,0.207,0.0172,0.16
KCNH3 (potassium voltage-gated channel subfamily H member 3),0.201,0.084,0.233,0.00579,0.265
MLN (motilin),0.067,0.116,0.338,0.0321,0.0964
CLDN11 (claudin 11),0.0634,0.131,0.132,0.033,0.176
EP400 (E1A binding protein p400),0.296,1.57,0.756,0.0276,2.08
RIOK1 (RIO kinase 1),0.17,0.0853,0.512,0.0363,0.345
PHF5A (PHD finger protein 5A),0.124,0.67,0.205,0.0725,0.117
SLX1B (structure-specific endonuclease subunit SLX1B),0.0933,0.159,0.325,0.0389,0.16
EIF2D (eukaryotic translation initiation factor 2D),0.137,0.0965,0.252,0.0451,0.147
CDADC1 (cytidine and dCMP deaminase domain containing 1),0.156,0.175,0.353,0.0212,0.222
SPANXA1,0.235,1.25,0.361,0.0359,0.198
UNC13A (unc-13 homolog A),0.12,0.519,0.294,0.00828,0.342
TFPI2 (tissue factor pathway inhibitor 2),0.0866,0.596,0.274,0.052,0.19

Just “ALDOC mRNA, set 1” (8 entries from above):
RAB28 (RAB28, member RAS oncogene family): 0.0246
SMARCAD1 (SNF2 related chromatin remodeling ATPase with DExD box 1): 0.0257
CD244 (CD244 molecule): 0.0204
SAFB2 (scaffold attachment factor B2): 0.0295
GRTP1 (growth hormone regulated TBC protein 1): 0.0288
NR1H4 (nuclear receptor subfamily 1 group H member 4): 0.018
PWP1 (PWP1 homolog, endonuclein): 0.0203
MXRA5 (matrix remodeling associated 5): 0.0238
